No constants are given. Whether binding was seen depends on the method and setting. Some entries that bind do so weakly or less than the wild type.
Key:
CAPRIN-1 protein = molecular target: T1, CAPRIN-1 protein (UniProt Q14444); test: ELISA
T1 sequence (looked up): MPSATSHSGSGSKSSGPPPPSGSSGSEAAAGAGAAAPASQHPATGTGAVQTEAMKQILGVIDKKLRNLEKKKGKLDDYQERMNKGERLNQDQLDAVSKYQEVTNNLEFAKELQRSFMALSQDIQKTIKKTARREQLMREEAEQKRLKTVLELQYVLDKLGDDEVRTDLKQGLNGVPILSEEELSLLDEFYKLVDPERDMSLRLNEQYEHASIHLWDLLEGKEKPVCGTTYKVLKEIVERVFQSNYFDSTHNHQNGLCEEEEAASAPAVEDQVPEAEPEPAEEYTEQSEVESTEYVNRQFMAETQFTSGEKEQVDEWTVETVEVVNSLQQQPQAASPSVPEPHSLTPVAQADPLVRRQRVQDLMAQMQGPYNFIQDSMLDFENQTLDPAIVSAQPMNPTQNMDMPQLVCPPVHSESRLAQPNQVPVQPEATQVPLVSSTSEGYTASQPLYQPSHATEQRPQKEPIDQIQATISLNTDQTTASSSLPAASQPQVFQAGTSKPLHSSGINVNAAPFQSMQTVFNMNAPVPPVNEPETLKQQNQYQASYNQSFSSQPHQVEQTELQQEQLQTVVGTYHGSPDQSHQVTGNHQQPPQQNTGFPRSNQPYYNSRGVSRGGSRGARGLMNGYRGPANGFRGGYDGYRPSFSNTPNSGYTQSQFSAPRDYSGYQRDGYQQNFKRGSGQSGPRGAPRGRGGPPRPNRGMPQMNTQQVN

[1] = molecular target: T2, CAPRIN-1 protein on the cell membrane surface of cancer cells (UniProt Q14444); test: flow cytometry
T2 sequence (looked up): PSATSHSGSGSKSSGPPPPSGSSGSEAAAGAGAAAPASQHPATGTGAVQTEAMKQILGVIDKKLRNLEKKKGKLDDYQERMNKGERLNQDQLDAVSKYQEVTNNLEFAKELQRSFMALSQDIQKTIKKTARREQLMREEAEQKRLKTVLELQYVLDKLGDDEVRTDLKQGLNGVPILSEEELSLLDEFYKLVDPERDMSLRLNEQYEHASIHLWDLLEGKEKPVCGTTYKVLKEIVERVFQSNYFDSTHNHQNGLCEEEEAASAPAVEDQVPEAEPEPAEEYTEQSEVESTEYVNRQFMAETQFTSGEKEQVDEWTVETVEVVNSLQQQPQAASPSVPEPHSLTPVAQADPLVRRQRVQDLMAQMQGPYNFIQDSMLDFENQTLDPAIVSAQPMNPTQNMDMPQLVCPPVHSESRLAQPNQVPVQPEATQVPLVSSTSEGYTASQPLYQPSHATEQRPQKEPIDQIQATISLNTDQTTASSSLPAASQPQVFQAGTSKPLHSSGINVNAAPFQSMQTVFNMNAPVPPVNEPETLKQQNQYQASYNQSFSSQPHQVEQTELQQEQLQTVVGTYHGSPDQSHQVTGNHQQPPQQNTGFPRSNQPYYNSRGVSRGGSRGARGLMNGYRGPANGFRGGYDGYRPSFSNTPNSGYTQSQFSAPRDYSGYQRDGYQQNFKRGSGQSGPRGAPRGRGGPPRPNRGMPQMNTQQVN

B1: Conjugate 29 (antibody, V domains shown)
VH: AVTLDESGGGLQMSRGGLSLVCKASGFDFSSYQMNWIRQAPGKGLEFVAAINKFGNSTGHGAAVKGRVTISRDNGQSTVRLQLNNLRAEDTAIYFCTKHAYGYCGSGTWCAAGEIDAWGHGTEVIVSS
VL: QAASTQPSSVSANPGETVEITCSGGGSYSYGWFQQKSPGSAPVTVIYYNNKRPSDIPSRFSGSKSGSTGTLTITGVQADDEAVYYCGSGDSTDTAVFGAGTTLTVLG
notes: mouse chimeric antibody #1 (mouse IgG constant regions) + resiquimod, MC-Val-Cit-PAB linker
For B1, which binding (CAPRIN-1 protein) is on record?
The binding was “binds”.

What about the binding [1] of the same binder?
The binding was “binds”.

B2: Conjugate 31 (antibody, V domains shown)
VH: AVTLDESGGGLQTPGGGLSLVCKASGFTFSSFDMGWVRQAPGKGLEFVAQINDAGSRTWYATAVKGRATISRDNGQTTVRLQLNNLRAEDTGTYYCTRGSGYVGAGAIDAWGHGTEVIVS
VL: AALTQPSSVSANPGETVKITCSGGSGYYGWYQQQKSPGSAPVTVIYQNDKRPSDIPSRFSGSGSGSTNTLTITGVQAEDEAVYFCGRYDSTDSGIFGAGTTLTVL
notes: mouse chimeric antibody #3 (mouse IgG constant regions) + resiquimod, MC-Val-Cit-PAB linker
With B2 as the binder, how does the binding (CAPRIN-1 protein) read?
Its binding is “binds”.

What about the binding [1] of the same binder?
Its binding is “binds”.

B3: Conjugate 33 (antibody, V domains shown)
VH: AVTLDESGGGLQMSRGGLSLVCKASGFDFSSYQMNWIRQAPGKGLEFVAAINKFGNSTGHGAAVKGRVTISRDNGQSTVRLQLNNLRAEDTAIYFCTKHAYGYCGSGTWCAAGEIDAWGHGTEVIVSS
VL: QAASTQPSSVSANPGETVEITCSGGGSYSYGWFQQKSPGSAPVTVIYYNNKRPSDIPSRFSGSKSGSTGTLTITGVQADDEAVYYCGSGDSTDTAVFGAGTTLTVLG
notes: mouse chimeric antibody #1 (mouse IgG constant regions) + resiquimod derivative, SATA and SMCC linkers
What does the source list for B3?
binding (CAPRIN-1 protein): binds; binding [1]: binds

B4: Conjugate 35 (antibody, V domains shown)
VH: AVTLDESGGGLQTPGGGLSLVCKASGFTFSSFDMGWVRQAPGKGLEFVAQINDAGSRTWYATAVKGRATISRDNGQTTVRLQLNNLRAEDTGTYYCTRGSGYVGAGAIDAWGHGTEVIVS
VL: AALTQPSSVSANPGETVKITCSGGSGYYGWYQQQKSPGSAPVTVIYQNDKRPSDIPSRFSGSGSGSTNTLTITGVQAEDEAVYFCGRYDSTDSGIFGAGTTLTVL
notes: mouse chimeric antibody #3 (mouse IgG constant regions) + resiquimod derivative, SATA and SMCC linkers
With B4 as the binder, how does the binding (CAPRIN-1 protein) read?
Its binding is “binds”.

And the binding [1]?
The binding was “binds”.

B5: Conjugate 177 (antibody, V domains shown)
VH: AVTLDESGGGLQTPGGALSLVCKASGFTFSGYDMLWVRQAPGKGLEWVAGIGSTGGGTDYGAAVKGRATISRDNGQSTVRLQLNNLRAEDTATYYCAKVAGGCNSGYCRDSPGSIDAWGHGTEVIVS
VL: AVTQQPASVSANPGETVKITCSGGGSRNYYGWYQQKSPGSVPVTVIYYDDQRPSNIPSRFSGALSGSTSTLTITGVQADDEAVYFCGSADSNTYEGSFGAGTTLTVL
With B5 as the binder, how does the binding (CAPRIN-1 protein) read?
The binding was “binds”.

What about the binding [1] of the same binder?
The binding was “binds”.

B6: Conjugate 181 (antibody, V domains shown)
VH: GAELVRSGASVKMSCKASGYSFTDYNMYWVKQTPGQGLEWIGYIYPGNGGTNYNQKFKGKATLTADTSSSTAYMQISSLTSEDSAVYFCARDYDDGGYAMDYWGQGTTVTVSS
VL: DIQMTQSPASLSASVGETVTITCRASGNIHNYLTWYQQKQGKSPQLLVYNAKTLADGVPSRFSGSGSGTQYSLKINRLQPEDFGSYYCQHFWNIPWTFGGGTKLNSR
B6 was tested. Which binding (CAPRIN-1 protein) did it give?
Its binding is “binds”.

What about the binding [1] of the same binder?
Its binding is “binds”.

B7: Conjugate 182 (antibody, V domains shown)
VH: DAELVKPGASVKISCKASGYTFTDHSIHWVQQKPEQGLEWIGYISPGNGNIKYNEKFKGKATLTADKSSSTAYMQLNSLTSEDSAVYFCKRSLGRGGPYYFDYWGQGTTVTVSS
VL: DIVLTQAAPSLPVTPGESVSISCRSSKSLLHSNGNTYLYWFLQRPGQSPQLLIYRMSNLASGVPDRFSGSGSGTAFTLRISRVEAEDVGVYYCMQHREYPVTFGSGPN
B7 was tested. Which binding (CAPRIN-1 protein) did it give?
Its binding is “binds”.

What about the binding [1] of the same binder?
The binding was “binds”.

B8: Conjugate 187 (antibody, V domains shown)
VH: EVQLHQFGAELVKPGASVKISCKASGYTFTDYNMDWVKQSHGKSLEWIGDINPNYDSTSYNQKFKGKATLTVDKSSSTAYMELRSLTSEDTAVYYCARSRSYDYEGFAYWGQGTLVTVSA
VL: DIQMTQSPASLSASVGETVTITCRASGNIHNYLAWYQQKQGKSPQLLVYNAKTLADGVPSRFSGSGSGTQYSLKINSLQPEDFGSYYCQHFWSTLTFGAGTKLELKR
What does the source list for B8?
binding (CAPRIN-1 protein): binds; binding [1]: binds

B9: Conjugate 198 (antibody, V domains shown)
VH: GPDLVKPGASVKISCKASGYSFTAYYMHWVKQSHGKSLEWIGRVNPNNGGTTYNQKFKGKAILTVDKSSSTAYMELRSLTFEDSAVYYCARRIYYGYFDYWGQGTTVTVSS
VL: AFFAVSLGQRATISCKASQSVDYDGDSYMNWYQQKPGQPPKLLIYVASNLESGVPARFSGSGSGTDFTLNIHPVEEEDAATYYCQQSNEDPYTFGGGTKLEIKQ
For B9, which binding (CAPRIN-1 protein) is on record?
The binding was “binds”.

What about the binding [1] of the same binder?
Its binding is “binds”.

B10: Conjugate 204 (antibody, V domains shown)
VH: EVQLVESGGGLVQPGGSLRLSCAASGFSLSSHSLGWVRQAPGKGLEWIGDIRSGGSAYYANWAKGRFTISRDNSKNTLYLQMNSLRAEDTAVYYCTRTNGPSDLTNRLDLWGQGTLVTVSS
VL: QVLTQSPSSLSASVGDRVTINCQASQSLYNNENLAWFQQKPGKVPKRLIYGASTLASGVSSRFSGSGSGTEFTLTISSLQCEDFAIYYCLGEFSCGSADCFAFGGGTKVEIK
How did the binding (CAPRIN-1 protein) turn out when B10 was run?
The binding was “binds”.

And the binding [1]?
Its binding is “binds”.

B11: Conjugate 205 (antibody, V domains shown)
VH: EVQLVESGGGLVQPGGSLRLSCAASGFSLSSHSLGWVRQAPGKGLEWIGDIRSGGSAYYANWAKGRFTISRDNSKNTLYLQMNSLRAEDTAVYFCTRTNGPSDLTNRLDLWGQGTLVTVSS
VL: QVLTQSPSSLSASVGDRVTINCQASQSLYNNENLAWFQQKPGKVPKRLIYGASTLASGVSSRFSGSGSGTEFTLTISSLQCEDFAIYYCLGEFSCGSADCFAFGGGTKVEIK
Which binding (CAPRIN-1 protein) does the source give for B11 here?
The binding was “binds”.

What about the binding [1] of the same binder?
The binding was “binds”.

B12: Conjugate 206 (antibody, V domains shown)
VH: EVQLVESGGGLVQPGGSLRLSCAASGFSLSSHSLGWVRQAPGKGLEWIGDIRSGGSAYYANWAKGRFTISRDNSKNTLYLQMNSLRAEDTAVYYCTRTNGPSDLTNRLDLWGQGTLVTVSS
VL: EQVLTQSPSSLSASVGDRVTINCQASQSLYNNENLAWFQQKPGKVPKRLIYGASTLASGVSSRFSGSGSGTEFTLTISNLQPEDFAIYYCLGEFSCGSADCFAFGGGTKVEIK
What does the source list for B12?
binding (CAPRIN-1 protein): binds; binding [1]: binds

B13: Conjugate 207 (antibody, V domains shown)
VH: EVQLVESGGGLVQPGGSLRLSCAASGFSLSSHSLGWVRQAPGKGLEWIGDIRSGGSAYYANWAKGRFTISRDNSKNTLYLQMNSLRAEDTAVYFCTRTNGPSDLTNRLDLWGQGTLVTVSS
VL: EIVLTQSPSSLSASVGDRVTINCQASQSLYNNENLAWFQQKPGKVPKRLIYGASTLASGVSSRFSGSGSGTEFTLTISNLQPEDFATYYCLGEFSCGSADCFAFGGGTKVEIK
B13 was tested. Which binding (CAPRIN-1 protein) did it give?
The binding was “binds”.

What about the binding [1] of the same binder?
Its binding is “binds”.

B14: Conjugate 208 (antibody, V domains shown)
VH: EVQLVESGGGLVQPGGSLRLSCAASGFSLSSHSLGWVRQAPGKGLEWIGDIRSGGSAYYANWAKGRFTISRDNSKNTLYLQMNSLRAEDTAVYYCTRTNGPSDLTNRLDLWGQGTLVTVSS
VL: EIVLTQSPSSLSASVGDRVTINCQASQSLYNNENLAWFQQKPGKVPKRLIYGASTLASGVSSRFSGSGSGTEFTLTISNLQPEDFATYYCLGEFSCGSADCFAFGGGTKVEIK
B14 was tested. Which binding (CAPRIN-1 protein) did it give?
The binding was “binds”.

What about the binding [1] of the same binder?
Its binding is “binds”.

B15: Conjugate 209 (antibody, V domains shown)
VH: EVQLVESGGGLVQPGGSLRLSCAASGFSLSSHSLGWVRQAPGKGLEWIGDIRSGGSAYYANWAKGRFTISRDNSKNTLYLQMNSLRAEDTAVYFCTRTNGPSDLTNRLDLWGQGTLVTVSS
VL: EQVLTQSPSSLSASVGDRVTINCQASQSLYNNENLAWFQQKPGKVPKRLIYGASTLASGVSSRFSGSGSGTEFTLTISNLQPEDFAIYYCLGEFSCGSADCFAFGGGTKVEIK
For B15, which binding (CAPRIN-1 protein) is on record?
The binding was “binds”.

What about the binding [1] of the same binder?
The binding was “binds”.

B16: Conjugate 210 (antibody, V domains shown)
VH: AVTLDESGGGLQTPGGALSLVCKASGFTFSGYDMLWVRQAPGKGLEWVAGIGSTGGGTDYGAAVKGRATISRDNGQSTVRLQLNNLRAEDTATYYCAKVAGGCNSGYCRDSPGSIDAWGHGTEVIVS
VL: AVTQQPASVSANPGETVKITCSGGGSRNYYGWYQQKSPGSVPVTVIYYDDQRPSNIPSRFSGALSGSTSTLTITGVQADDEAVYFCGSADSNTYEGSFGAGTTLTVL
Which results are given for B16?
binding (CAPRIN-1 protein): binds; binding [1]: binds
